From US5753615A, “Neuropeptides and their use as insecticides” (Queen Mary and Westfield College, priority 1993, dated 1998)
Part of at least one peptide drawing is inferred or uncertain, most often the ends. No end group written: not given here.

Assays:
[1] = tested on: juvenile hormone bisepoxide (JHB3), the major JH compound in the blowfly; assay: inhibition of juvenile hormone bisepoxide (JHB3) in the blowfly itself; set-up: species or system Calliphora vomitoria; conditions: experiments on the blowfly itself, under the conditions so far applied
[2] = tested on: corpora allata of the cockroach Diploptera punctata; format: cell-based; conditions: in vitro
Description: Thus, it causes maximum inhibition of JH at a concentration of 1 nM, with a 50% inhibition (ED50) being achieved at 0.1 nM.

## GPPYDFGM-NH2 [Callatostatin 5, Gly-Pro-Pro-Tyr-Asp-Phe-Gly-Met-NH2]
[1]
  inhibition of juvenile hormone bisepoxide (JHB3): do not record an inhibition
[2]
  concentration causing maximum inhibition of JH: 1 nM
